Laboratory results published in PubChem BioAssay AID504467 (National Center for Advancing Translational Sciences (NCATS), 2011).
Screen size: about 330,000 compounds; about 7,700 (2.3%) were called active. The shares of active, inactive and inconclusive entries below differ from those in the screen. The call rests on the fitted dose curve; in most records, active means well fitted inhibition curve with a large enough effect; inconclusive means small, poorly fitted or top-dose-only effect, or effect the other way; inactive means flat fitted curve, though single readings scatter. A potency beside an inconclusive call is a rough fit, not a confirmed value.

assay: qHTS screen for small molecules that inhibit ELG1-dependent DNA repair in human embryonic kidney (HEK293T) cells expressing luciferase-tagged ELG1; conditions: HEK293T ELG1-luciferase reporter, luminescence, 16 h, DNA damage induced by 5-fluorouridine; series mostly up to 46.1 µM; further: nearly all actives have a fitted effect of over 55% in size
How it was run: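 Overnight (16 hr) co-exposure of 2,000 cells/well to 5-fluorouridine and compound at 37 °C preceded detection. Luciferase was quantified via ONE-Glo luminescence; loss of signal denotes inhibition.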
Potency means the concentration at half of the fitted maximal effect.

Structure (SMILES)	Potency
O=C(CSc1nnc(CNc2ccc(F)cc2)n1Cc1ccccc1)NCc1ccccc1	inconclusive: 29.1 µM [inhibitor, single point]
Nc1nc(/C=C/c2ccc(F)cc2)nc(-c2ccccc2O)n1	inactive
CC(=O)c1cccc(OCC(=O)N2CCCc3ccccc32)c1	inactive
O=C(C[C@H]1C[C@H](C(=O)N2CCOCC2)[C@@]2(CCC3CCCC3)c3[nH]c4ccc(Cl)cc4c3CCN2C1=O)NCCc1ccccn1	inactive
CC(C)(C)C(=O)Nc1cccc(C(=O)c2cccc(NC(=O)C(C)(C)C)c2)c1	inconclusive: 23.1 µM [inhibitor, partial curve]
CNC[C@H]1Oc2c(NS(=O)(=O)c3ccccc3)cccc2C(=O)N([C@H](C)CO)C[C@@H]1C	inconclusive: 14.6 µM [activator, partial curve]
CCO[C@@H]1OC(C(N)=O)=C[C@H](c2ccccc2)[C@H]1CCCO	inconclusive: 3.26 µM [activator, partial curve, poor fit]
CN1C(CC(=O)c2ccccc2)CCCC1CC(O)c1ccccc1 (centres undefined)	inactive
CCN(CC)CCCNC(=O)c1cn(C)c2ccc(S(=O)(=O)N(C)C3CCCCC3)cc2c1=O	inconclusive: 1.03 µM [inhibitor, full curve]
Cc1ccc(-c2cc(C(=O)NCc3ccco3)c3ccccc3n2)o1	inconclusive: 14.1 µM [inhibitor, single point]
S=C(NCc1ccccc1)Nc1cccc2ccccc12	inactive
CCN(CC(=O)Nc1ccc(NC(C)=O)cc1)C(=O)CCCSc1nc2ccccc2[nH]1	inactive
CCOC(=O)c1cc2c(ccn2-c2ccc(F)cc2)n1CC(=O)N1CCN(C(=O)c2ccco2)CC1	inconclusive: 0.103 µM [activator, full curve, poor fit]
C[C@]12C=C[C@H](O)CC1=CCC1C2CC[C@@]2(C)C1CCC21OCCO1 (some centres undefined)	inactive
COc1cc(/C=C/C(=O)N(C)CC(=O)Nc2ccccc2SC)cc(OC)c1OC	active: 16.4 µM
COc1ccccc1NC(=O)CSc1nnc(-c2ccc(NC(C)=O)cc2)n1C	inactive
CCOC(=O)c1ccccc1-n1c(C)cc(C2N=C(N)Nc3nc4ccccc4n32)c1C (centres undefined)	inconclusive: 29.1 µM [inhibitor, single point]
Cc1ccc(-c2cc(-c3ccccc3)no2)cc1	inconclusive: 5.62 µM [activator, partial curve, poor fit]
COc1ccc(-c2csc(N3CCN(S(=O)(=O)c4ccc5c(c4)NC(=O)CO5)CC3)n2)cc1	inconclusive: 29.1 µM [inhibitor, single point]
